Results taken from patent US20050214207A1 (published 2005).
Results are given in words; binding and its absence hold for the method and conditions named. Binding calls can cover weak binding; strength is not graded here.

B1: CM089A03 scFv (scFv)
scFv: QVQLQQSGAEVKTPGSSVKVSCKASGGTFRNNAISWVRQAPGQGLEWMGGFIPKFGTTNHAQKFQGRVTMTADDSTNTVYMELSSLRSEDTAVYYCARGGAYCGGGRCYLYGMDVWGQGTLVTVSSGGGGSGGGGSGGGGSAQAVVIQEPSLTVSPGGTVTLTCGSSTGAVTSGHYPYWFQQKPGQAPRTLIYDTSNKRSWTPARFSGSLLGGKAALTLSGAQPEDEAEYYCLVSYSGSLVVFGGGTKLTVLG
B2: CM087C06 scFv (scFv)
scFv: QMQLVQSGGGLVKPGGSLRLSCAASGFTFSDYYMSWIRQAPGKGLEWVSAISGSGGSTYYADSVKGRFTISRDNSKNTLYLQMNSLRAEDTAVYYCARGGSTFDIWGRGTMVTVSSGGGGSGGGGSGGGGSAQPVLTQPPSASGTPGQRVTISCSGSNSNIGSRPVNWYQQLPGTAPKLLIQGNNQRPSGVPDRFSGSKSGTSASLAISGLQSEDEADYYCAAWDDSLTGYVFGPGTKLTVLG
B3: CM059H03 scFv (scFv)
scFv: EVQLVQSGAEVKKPGASVKVSCRASGYTFTSYGITWVRQAPGQGLEWMGWISAYNGKTNYVQELQGRVTMTTDTSTSTVYMELTSLRSDDTAVYYCARRGNNYRFGYFDFWGQGTLVTVSSGGGGSGGGGSGGGGSALETTLTQSPGTLSLSPGERATLSCRASQSISSSNLAWYQQKPGRAPRLLIYGASSRAIGIPDRFSGSGSGTDFTLTISRLEAEDFAVYYCQQYGSSPITFGQGTRLEIKR
B4: CM013F04 scFv (scFv)
scFv: EVQLVESGGGLVQPGGSLRLSCAASGFTFSSYWMSWVRQAPGKGLEWVANIKQDGSEKYYVDSVKGRFTISRDNAKNSLYLQMNSLRAEDTAVYYCARDFSGYGDYLDYWGKGTLVTVSSGGGGSGGGGSGGGGSAQSALTQPPSASGSPGQSVTISCTGTSSDIGNYNYVSWYQQHPGKAPKLMIYEVNERPSGVPDRFSGSKSGNTASLTVSGLRPEDEADYYCSSYAGNNAVIFGGGTQLTVLG
B5: CM013A11 scFv (scFv)
scFv: QVQLVQSGGGVVQPGRSLRLSCAASGFTFSPDAMHWVRQAPGKGLEWMGVISFDGSQTFYADSVKGRFTISRDNSQNTLYLQMNSLRSDDTAVYYCARAPARFFPLHFDIWGRGTMVTVSSGGGGSGGGGSGGGGSALSSELTQDPAVSVALGQTVRITCQGDSLRTHYASWYHQRPGRAPVLVNYPKDSRPSGIPDRFSGSSSGNTASLTIIGAQAADEGDYYCQSRDSSGVLFGGGTKVTVLG
B6: CM084A02 scFv (scFv)
scFv: EVQLVQSGAEVKKPGASVKLSCKASGYTLVNYFMHWVRQAPGQGPEWMGMINPSGGTTKNRQKFQDRVTMTRDTSTRTVYMELSGLTSEDTAVYYCATDFKGTDILFRDWGRGTLVTVSSGGGGSGGGGSGGGGSAQSVLTQPPSASGTPGQRVSISCSGSSSNIGSNTVIWYQQLPGTAPKLLMYSNDRRPSGVPDRFSGSKSGTSASLAISGLQSEDEADYYCATWDDSLNGHYVFGTGTKLTVLG
B7: CM033D06 scFv (scFv)
scFv: QVQLQQSGAEVKKPGASVRVSCQASGYSLSEYYIHWVRQAPGQGLEWMGWLNPNSGVTDYAQKFQGRVSMTRDTSISTAYMELSSLTFNDTAVYFCARGNGDYWGKGTLVTVSPGGGGSGGGGSGGGGSSELTQDPAVSVALGQTVRITCQGDSLRSYYTNWFQQKPGQAPLLVVYAKNKRPSGIPDRFSGSSSGNTASLTITGAQAEDEADYYCHSRDSSGWVFGGGTKLTVLG
B8: CM055A01 scFv (scFv)
scFv: QMQLVQSGGAVVQPGRSLRLSCAASGFTFSSYGMHWVRQAPGKGLEWVAVISYDGSIKYYADSVKGRFTISRDNSKNTLYLQMNSLRAEDTAVYYCARERLRGLDPWGQGTMVTVSSGGGGSGGGGSGGGGSSELTQDPAVSVALGQTVRITCQGDSLRSYYASWYQQKPGQAPVLVIYGKNNRPSGIPDRFSGSSSGNTASLTITGAQAEDEADYYCNSRDSSGNHVVFGGGTKLTVLG
B9: CM088F10 scFv (scFv)
scFv: QVQLVQSGAEVKKPGASVKVSCKASGYTFTTHAMHWVRQAPGQSLEWMGWINTGNGNTKYSQSFQGRVSITRDTSANTAYMELSSLKSEDTAMYYCARASRDSSGYYYVPPGDFFDIWGQGTLVTVSSGGGGSGGGGSGGGGSAQSALTQPASVSGSPGQSITISCTGSRSDIGGYNFVSWYQQHPGKAPKLLIYDVYNRPSGISDHFSGSKSDNTASLTISGLQSEDDADYYCSSYAGYHTWIFGGGTKVTVLG
B10: CM085C11 scFv (scFv)
scFv: EVQLVETGGGLVQPGGSLRLSCAASGFTFSPYYMSWVRQAPGKGLEWVSAISGSGGSIYYADSVKGRFTISRDNSKNTLYLQMNSLRAEDTALYYCARGASGPDYWGRGTMVTVSSGGGGSGGGGSGGGGSAQSVLTQPPSVSAAPGQKVTISCSGSTSNIGNNYVSWYQQVPGTAPKLLIYDNNKRPSGIPDRFSGSKSGTSATLGITGLQTGDEADYYCGTWDSSLSALVFGGGTKVTVLG
B11: CM014C10 scFv (scFv)
scFv: QVQLVQSGAEVKKPGASVKISCEGSGYTFNSYTLHWLRQAPGQRLEWMGRINAGNGNTKYSQNFQGRLSITRDTSATTAYMELSSLRSEDTGVYYCARVFTYSFGMDVWGRGTLVTVSSGGGGSGGGGSGGGGSAQSVLTQPPSASGTPGQRVTISCSGGGSNIGRNSVSWYQQLPGTAPKLILYSNNQRPSGVPDRFSGSKSGTSASLAISGLRSEDEALYYCAAWDDSLSGGVFGGGTKLTVLG
B12: CM005A08 scFv (scFv)
scFv: EVQLVETGGGLVQPGGSLRLSCAASGFTFSSYAMSWVRQAPGKGLEWVSAISGSGGSTYYADSVKGRFTISRDNSKNTLYLQMNSLRAEDTAVYHCARGGYSSSRSAAYDIWGQGTLVTVSSGGGGSGGGGSGGGGSSELTQDPAVSVALGQTVRITCQGDSLRSYYASWYQQKPGQAPVLVIYGKNNRPSGIPDRFSGSSSGNTASLTITGAQAEDEADYYCNSRDSSGNHVVFGGGTKLTVLG

What follows are binders tested against TR7 polypeptide (form used for the phage display selection not stated) (human) (assay: phage display selection of scFvs (no details given)).

binding, binds:
B1
B2
B3
B4
B5
B6
B7
B8
B9
B10
B11
B12
